For 6 molecules, binding results are on record in paper PMC12143978.

By UniProt entry, the sequences of proteins in these tests, tags left out.
UniProt P78527: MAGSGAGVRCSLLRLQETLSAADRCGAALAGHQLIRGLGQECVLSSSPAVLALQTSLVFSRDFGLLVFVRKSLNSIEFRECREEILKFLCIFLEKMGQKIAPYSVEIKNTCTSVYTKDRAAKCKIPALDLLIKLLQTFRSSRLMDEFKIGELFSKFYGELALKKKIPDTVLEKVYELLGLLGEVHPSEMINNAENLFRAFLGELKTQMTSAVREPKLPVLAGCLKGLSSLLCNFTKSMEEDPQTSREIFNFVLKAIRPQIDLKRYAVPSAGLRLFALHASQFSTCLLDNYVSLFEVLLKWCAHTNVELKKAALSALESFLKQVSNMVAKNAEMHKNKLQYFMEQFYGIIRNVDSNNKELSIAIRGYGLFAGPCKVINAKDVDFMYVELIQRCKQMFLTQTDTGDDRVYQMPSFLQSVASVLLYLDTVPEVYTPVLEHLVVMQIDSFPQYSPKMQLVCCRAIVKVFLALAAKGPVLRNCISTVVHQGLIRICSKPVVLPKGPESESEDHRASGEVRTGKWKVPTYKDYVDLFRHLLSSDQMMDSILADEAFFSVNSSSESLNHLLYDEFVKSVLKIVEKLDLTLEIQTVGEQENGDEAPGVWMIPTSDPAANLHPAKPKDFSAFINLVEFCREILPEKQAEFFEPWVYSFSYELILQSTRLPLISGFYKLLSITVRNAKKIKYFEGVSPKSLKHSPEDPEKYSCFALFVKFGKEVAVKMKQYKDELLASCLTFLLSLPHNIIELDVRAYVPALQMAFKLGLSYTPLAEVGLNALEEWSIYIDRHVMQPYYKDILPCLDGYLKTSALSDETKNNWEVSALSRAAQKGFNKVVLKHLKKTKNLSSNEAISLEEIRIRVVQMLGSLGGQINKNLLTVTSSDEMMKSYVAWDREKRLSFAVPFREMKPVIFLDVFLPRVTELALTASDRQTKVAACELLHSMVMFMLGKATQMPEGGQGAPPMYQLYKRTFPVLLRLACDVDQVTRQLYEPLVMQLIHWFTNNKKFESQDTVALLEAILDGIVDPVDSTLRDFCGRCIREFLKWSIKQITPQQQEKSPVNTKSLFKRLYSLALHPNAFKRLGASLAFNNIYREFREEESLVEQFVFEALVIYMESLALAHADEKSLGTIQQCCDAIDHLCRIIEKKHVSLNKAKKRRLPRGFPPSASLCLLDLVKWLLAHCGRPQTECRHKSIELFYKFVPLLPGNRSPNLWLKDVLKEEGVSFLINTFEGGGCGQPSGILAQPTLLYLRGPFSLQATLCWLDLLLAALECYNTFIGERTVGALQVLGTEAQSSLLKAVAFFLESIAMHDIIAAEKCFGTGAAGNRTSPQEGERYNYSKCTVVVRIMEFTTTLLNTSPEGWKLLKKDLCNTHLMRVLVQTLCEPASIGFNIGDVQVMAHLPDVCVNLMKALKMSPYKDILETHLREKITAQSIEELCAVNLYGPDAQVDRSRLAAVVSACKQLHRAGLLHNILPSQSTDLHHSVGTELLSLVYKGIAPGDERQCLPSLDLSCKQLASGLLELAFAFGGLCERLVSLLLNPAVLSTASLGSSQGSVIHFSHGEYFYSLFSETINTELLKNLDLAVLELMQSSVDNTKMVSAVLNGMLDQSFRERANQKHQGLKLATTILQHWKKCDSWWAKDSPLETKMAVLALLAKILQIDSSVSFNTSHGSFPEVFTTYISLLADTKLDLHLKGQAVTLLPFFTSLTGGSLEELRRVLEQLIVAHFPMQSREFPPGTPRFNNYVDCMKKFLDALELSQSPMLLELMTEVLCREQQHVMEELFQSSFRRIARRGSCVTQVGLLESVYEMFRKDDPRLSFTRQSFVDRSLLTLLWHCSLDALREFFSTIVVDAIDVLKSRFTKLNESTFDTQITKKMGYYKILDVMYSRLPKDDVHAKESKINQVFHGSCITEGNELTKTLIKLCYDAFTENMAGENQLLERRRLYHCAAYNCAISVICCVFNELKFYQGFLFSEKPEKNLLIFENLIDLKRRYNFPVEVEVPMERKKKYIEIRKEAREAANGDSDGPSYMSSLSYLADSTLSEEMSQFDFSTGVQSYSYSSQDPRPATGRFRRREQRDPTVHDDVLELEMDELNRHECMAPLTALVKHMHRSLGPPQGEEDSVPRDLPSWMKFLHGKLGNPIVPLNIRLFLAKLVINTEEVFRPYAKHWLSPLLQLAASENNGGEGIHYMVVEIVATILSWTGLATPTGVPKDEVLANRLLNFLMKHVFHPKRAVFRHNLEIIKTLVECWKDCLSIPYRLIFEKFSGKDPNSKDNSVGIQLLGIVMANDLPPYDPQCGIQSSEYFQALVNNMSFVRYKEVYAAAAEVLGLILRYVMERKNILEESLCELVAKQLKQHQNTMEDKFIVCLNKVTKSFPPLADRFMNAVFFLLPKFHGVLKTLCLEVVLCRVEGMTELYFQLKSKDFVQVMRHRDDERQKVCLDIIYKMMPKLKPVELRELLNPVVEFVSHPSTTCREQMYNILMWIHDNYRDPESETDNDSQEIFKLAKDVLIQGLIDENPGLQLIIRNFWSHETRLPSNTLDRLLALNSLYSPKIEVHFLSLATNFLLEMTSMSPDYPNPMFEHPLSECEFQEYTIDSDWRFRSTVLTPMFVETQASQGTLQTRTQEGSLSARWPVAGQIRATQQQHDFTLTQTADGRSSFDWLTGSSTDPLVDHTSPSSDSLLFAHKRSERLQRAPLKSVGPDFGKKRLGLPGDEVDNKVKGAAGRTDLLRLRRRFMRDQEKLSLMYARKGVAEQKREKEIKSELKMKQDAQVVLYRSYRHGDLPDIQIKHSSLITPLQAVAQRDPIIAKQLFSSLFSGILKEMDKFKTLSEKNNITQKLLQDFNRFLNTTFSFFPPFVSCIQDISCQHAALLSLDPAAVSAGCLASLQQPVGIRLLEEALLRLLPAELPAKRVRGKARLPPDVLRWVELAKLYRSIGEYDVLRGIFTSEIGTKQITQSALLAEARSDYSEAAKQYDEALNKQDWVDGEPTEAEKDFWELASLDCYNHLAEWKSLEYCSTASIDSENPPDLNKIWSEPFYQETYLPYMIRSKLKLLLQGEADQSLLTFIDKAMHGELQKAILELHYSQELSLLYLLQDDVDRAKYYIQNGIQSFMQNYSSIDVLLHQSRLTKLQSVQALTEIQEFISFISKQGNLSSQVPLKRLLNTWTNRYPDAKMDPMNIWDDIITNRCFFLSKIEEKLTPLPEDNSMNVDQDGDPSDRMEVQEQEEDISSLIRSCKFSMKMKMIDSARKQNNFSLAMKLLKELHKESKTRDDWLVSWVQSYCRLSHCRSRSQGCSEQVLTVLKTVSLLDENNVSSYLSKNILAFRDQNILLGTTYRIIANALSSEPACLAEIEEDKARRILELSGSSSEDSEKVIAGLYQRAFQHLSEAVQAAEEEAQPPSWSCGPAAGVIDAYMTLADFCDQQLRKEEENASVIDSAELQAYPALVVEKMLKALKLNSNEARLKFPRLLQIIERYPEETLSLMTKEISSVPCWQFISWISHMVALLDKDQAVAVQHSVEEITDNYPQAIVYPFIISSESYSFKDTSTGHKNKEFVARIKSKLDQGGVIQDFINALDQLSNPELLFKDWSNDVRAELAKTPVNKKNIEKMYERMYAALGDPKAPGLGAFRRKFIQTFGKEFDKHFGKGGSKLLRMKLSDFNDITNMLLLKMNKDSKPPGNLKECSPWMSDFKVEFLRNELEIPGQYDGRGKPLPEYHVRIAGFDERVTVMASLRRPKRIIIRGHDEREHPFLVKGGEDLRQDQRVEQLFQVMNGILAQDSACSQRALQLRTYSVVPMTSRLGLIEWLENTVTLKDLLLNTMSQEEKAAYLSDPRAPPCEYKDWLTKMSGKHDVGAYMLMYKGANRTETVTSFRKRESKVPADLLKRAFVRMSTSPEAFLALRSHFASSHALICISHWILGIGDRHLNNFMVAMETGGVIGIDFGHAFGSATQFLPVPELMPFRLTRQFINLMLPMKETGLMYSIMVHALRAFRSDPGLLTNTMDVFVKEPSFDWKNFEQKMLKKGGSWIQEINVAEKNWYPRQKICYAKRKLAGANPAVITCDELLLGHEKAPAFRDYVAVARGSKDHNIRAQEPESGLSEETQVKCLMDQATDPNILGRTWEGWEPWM
UniProt Q9NXR7: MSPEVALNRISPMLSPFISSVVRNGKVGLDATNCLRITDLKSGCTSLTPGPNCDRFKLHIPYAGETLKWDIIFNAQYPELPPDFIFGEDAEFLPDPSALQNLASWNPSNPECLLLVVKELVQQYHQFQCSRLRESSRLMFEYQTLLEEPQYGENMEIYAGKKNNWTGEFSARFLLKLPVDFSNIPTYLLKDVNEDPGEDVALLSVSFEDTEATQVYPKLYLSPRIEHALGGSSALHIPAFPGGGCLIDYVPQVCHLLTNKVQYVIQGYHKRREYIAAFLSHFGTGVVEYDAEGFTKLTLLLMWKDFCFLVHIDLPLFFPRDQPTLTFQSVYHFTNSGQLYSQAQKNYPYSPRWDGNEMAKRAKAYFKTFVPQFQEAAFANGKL
UniProt Q12834: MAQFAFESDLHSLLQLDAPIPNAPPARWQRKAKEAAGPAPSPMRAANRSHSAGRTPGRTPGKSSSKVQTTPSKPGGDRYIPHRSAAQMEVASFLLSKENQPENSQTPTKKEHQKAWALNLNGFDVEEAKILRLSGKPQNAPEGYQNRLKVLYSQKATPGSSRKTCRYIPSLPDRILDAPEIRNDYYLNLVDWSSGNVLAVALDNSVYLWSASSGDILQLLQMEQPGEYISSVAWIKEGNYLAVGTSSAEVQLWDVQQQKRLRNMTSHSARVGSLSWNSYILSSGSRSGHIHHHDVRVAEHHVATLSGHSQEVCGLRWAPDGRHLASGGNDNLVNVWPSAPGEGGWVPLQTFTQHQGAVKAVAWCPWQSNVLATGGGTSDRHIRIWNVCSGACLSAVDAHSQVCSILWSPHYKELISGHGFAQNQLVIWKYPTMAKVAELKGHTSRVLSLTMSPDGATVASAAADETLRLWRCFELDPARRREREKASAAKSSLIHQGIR

Sequences and labels used below:
B1: FLCN-interacting protein 1 (FNIP1) (protein, UniProt Q8TF40 1-1166)
chain: MAPTLFQKLFSKRTGLGAPGRDARDPDCGFSWPLPEFDPSQIRLIVYQDCERRGRNVLFDSSVKRRNEDISVSKLGSDAQVKVFGKCCQLKPGGDSSSSLDSSVTSSSDIKDQCLKYQGSRCSSDANMLGEMMFGSVAMSYKGSTLKIHQIRSPPQLMLSKVFTARTGSSICGSLNTLQDSLEFINQDNNTLKADNNTVINGLLGNIGLSQFCSPRRAFSEQGPLRLIRSASFFAVHSNPMDMPGRELNEDRDSGIARSASLSSLLITPFPSPNSSLTRSCASSYQRRWRRSQTTSLENGVFPRWSIEESFNLSDESCGPNPGIVRKKKIAIGVIFSLSKDEDENNKFNEFFFSHFPLFESHMNKLKSAIEQAMKMSRRSADASQRSLAYNRIVDALNEFRTTICNLYTMPRIGEPVWLTMMSGTPEKNHLCYRFMKEFTFLMENASKNQFLPALITAVLTNHLAWVPTVMPNGQPPIKIFLEKHSSQSVDMLAKTHPYNPLWAQLGDLYGAIGSPVRLARTVVVGKRQDMVQRLLYFLTYFIRCSELQETHLLENGEDEAIVMPGTVITTTLEKGEIEESEYVLVTMHRNKSSLLFKESEEIRTPNCNCKYCSHPLLGQNVENISQQEREDIQNSSKELLGISDECQMISPSDCQEENAVDVKQYRDKLRTCFDAKLETVVCTGSVPVDKCALSESGLESTEETWQSEKLLDSDSHTGKAMRSTGMVVEKKPPDKIVPASFSCEAAQTKVTFLIGDSMSPDSDTELRSQAVVDQITRHHTKPLKEERGAIDQHQETKQTTKDQSGESDTQNMVSEEPCELPCWNHSDPESMSLFDEYFNDDSIETRTIDDVPFKTSTDSKDHCCMLEFSKILCTKNNKQNNEFCKCIETVPQDSCKTCFPQQDQRDTLSILVPHGDKESSDKKIAVGTEWDIPRNESSDSALGDSESEDTGHDMTRQVSSYYGGEQEDWAEEDEIPFPGSKLIEVSAVQPNIANFGRSLLGGYCSSYVPDFVLQGIGSDERFRQCLMSDLSHAVQHPVLDEPIAEAVCIIADMDKWTVQVASSQRRVTDNKLGKEVLVSSLVSNLLHSTLQLYKHNLSPNFCVMHLEDRLQELYFKSKMLSEYLRGQMRVHVKELGVVLGIESSDLPLLAAVASTHSPYVAQILL
B2: co-chaperone CDC37 (protein, UniProt Q16543 1-378)
chain: MVDYSVWDHIEVSDDEDETHPNIDTASLFRWRHQARVERMEQFQKEKEELDRGCRECKRKVAECQRKLKELEVAEGGKAELERLQAEAQQLRKEERSWEQKLEEMRKKEKSMPWNVDTLSKDGFSKSMVNTKPEKTEEDSEEVREQKHKTFVEKYEKQIKHFGMLRRWDDSQKYLSDNVHLVCEETANYLVIWCIDLEVEEKCALMEQVAHQTIVMQFILELAKSLKVDPRACFRQFFTKIKTADRQYMEGFNDELEAFKERVRGRAKLRIEKAMKEYEEEERKKRLGPGGLDPVEVYESLPEELQKCFDVKDVQMLQDAISKMDPTDAKYHMQRCIDSGLWVPNSKASEAKEGEEAGPGDPLLEAVPKTGDEKDVSV

Results are given in words; binding and its absence hold for the method and conditions named. In cells and extracts the contact can be indirect. A yes stands for co-enrichment or nearness to the bait. Other partners may have been found. Where a sequence is shown, tags or fusion partners need not be part of it.

For the experiment, the target named is T1, GST-tagged FLCN (folliculin) (human) (UniProt Q8NFG4).
T1 sequence: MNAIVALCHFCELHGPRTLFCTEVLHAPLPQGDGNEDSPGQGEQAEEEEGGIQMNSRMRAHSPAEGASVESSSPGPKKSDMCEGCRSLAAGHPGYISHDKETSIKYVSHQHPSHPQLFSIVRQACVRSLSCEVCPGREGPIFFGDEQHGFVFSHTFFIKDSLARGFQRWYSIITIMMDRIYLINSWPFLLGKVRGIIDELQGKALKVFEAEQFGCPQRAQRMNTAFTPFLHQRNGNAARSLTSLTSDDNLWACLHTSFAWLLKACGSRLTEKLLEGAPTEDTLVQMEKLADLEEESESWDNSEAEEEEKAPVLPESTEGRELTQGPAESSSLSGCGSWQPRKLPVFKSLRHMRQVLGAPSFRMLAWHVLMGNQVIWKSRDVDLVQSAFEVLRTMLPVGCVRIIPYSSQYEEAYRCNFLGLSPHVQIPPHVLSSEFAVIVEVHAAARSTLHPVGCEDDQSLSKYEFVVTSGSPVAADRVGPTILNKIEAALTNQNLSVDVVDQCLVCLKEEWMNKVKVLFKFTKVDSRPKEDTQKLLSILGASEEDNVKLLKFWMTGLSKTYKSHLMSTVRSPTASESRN
Kind of experiment: affinity purification with mass spectrometry; GST-FLCN overexpressed in HEK293 cells, purified with its interacting proteins, separated via SDS-PAGE, colloidal blue stain, gel sectioned, LC-MS/MS.
Regarding “DNA-dependent protein kinase catalytic subunit (DNA-PKcs) (from UniProt P78527 1-4128)”, the binding result is “binds”. Under TP53 (from UniProt P04637 1-393) stands “binds”. Under “BRCA1 A complex component BRE (from UniProt Q9NXR7 1-383)” stands “binds”; under CDC20 (from UniProt Q12834 1-499), “binds”. For the molecule B1, the binding result is recorded as “binds”. Regarding B2, the binding result is on record as “binds”.
